Test: PLP thiazolidine formation: reaction with pyridoxal-5′ phosphate cofactor, absorbance scan
[1] = 2 mM compound + 2 mM PLP, carbonate-bicarbonate buffer pH 7.4, 1 h room temperature, n=6

## NCCS.O=C(O)C(O)C(O)C(=O)O (stereo not drawn) [cysteamine bitartrate]
[1]
  absorbance at 320 nm, reaction products versus PLP alone: significant difference
  absorbance at 390 nm versus PLP alone: significant reduction
Equimolar 2 mM, pH 7.4
  reaction with PLP (thiazolidine formation): react with PLP
